# The other results are listed elsewhere or left out.
# Experiments:
# Assay in all cases: protein microarray (ProtoArray v5.0), streptavidin-Alexa Fluor 647
# Conditions in all cases: 3'-biotin; 20 mM Tris (pH 7.5), 5 mM MgCl2, 100 mM KCl, 0.1% Tween-20, A/T-rich and random oligonucleotide blockers; temperature not stated; high values mean tight binding
# [1] = system: LOC199800 (human)
# [2] = system: LOC201725 (human)
# [3] = system: LOC202459 (human)
# [4] = system: LOC220906 (human)
# [5] = system: LOC253012 (human)
# [6] = system: LOC284134 (human)
# [7] = system: LOC284422 (human)
# [8] = system: LOC285141 (human)
# [9] = system: LOC285401 (human)
# [10] = system: LOC285577 (human)
sequence,measurement,setting,value
GGGAGGCTGAGGCAGG [G4-1 biotinylated (PQS2)],binding signal,[1],-0.313 z-score
same,binding signal,[2],-0.356 z-score
same,binding signal,[3],-0.343 z-score
same,binding signal,[4],-0.236 z-score
same,binding signal,[5],-0.304 z-score
same,binding signal,[6],-0.33 z-score
same,binding signal,[7],-0.316 z-score
same,binding signal,[8],-0.337 z-score
same,binding signal,[9],-0.276 z-score
same,binding signal,[10],-0.326 z-score

# From article PMC5996148
